Test results taken from doi:10.64898/2025.12.22.696049 (bioRxiv, 2025).
These are yes or no findings as the source states them, for the method shown. Some results given as binding are weak or reduced against the parent protein; the word gives no strength.

Sequences of proteins named here, by UniProt entry; tags and fusion partners are left off.
UniProt Q10289: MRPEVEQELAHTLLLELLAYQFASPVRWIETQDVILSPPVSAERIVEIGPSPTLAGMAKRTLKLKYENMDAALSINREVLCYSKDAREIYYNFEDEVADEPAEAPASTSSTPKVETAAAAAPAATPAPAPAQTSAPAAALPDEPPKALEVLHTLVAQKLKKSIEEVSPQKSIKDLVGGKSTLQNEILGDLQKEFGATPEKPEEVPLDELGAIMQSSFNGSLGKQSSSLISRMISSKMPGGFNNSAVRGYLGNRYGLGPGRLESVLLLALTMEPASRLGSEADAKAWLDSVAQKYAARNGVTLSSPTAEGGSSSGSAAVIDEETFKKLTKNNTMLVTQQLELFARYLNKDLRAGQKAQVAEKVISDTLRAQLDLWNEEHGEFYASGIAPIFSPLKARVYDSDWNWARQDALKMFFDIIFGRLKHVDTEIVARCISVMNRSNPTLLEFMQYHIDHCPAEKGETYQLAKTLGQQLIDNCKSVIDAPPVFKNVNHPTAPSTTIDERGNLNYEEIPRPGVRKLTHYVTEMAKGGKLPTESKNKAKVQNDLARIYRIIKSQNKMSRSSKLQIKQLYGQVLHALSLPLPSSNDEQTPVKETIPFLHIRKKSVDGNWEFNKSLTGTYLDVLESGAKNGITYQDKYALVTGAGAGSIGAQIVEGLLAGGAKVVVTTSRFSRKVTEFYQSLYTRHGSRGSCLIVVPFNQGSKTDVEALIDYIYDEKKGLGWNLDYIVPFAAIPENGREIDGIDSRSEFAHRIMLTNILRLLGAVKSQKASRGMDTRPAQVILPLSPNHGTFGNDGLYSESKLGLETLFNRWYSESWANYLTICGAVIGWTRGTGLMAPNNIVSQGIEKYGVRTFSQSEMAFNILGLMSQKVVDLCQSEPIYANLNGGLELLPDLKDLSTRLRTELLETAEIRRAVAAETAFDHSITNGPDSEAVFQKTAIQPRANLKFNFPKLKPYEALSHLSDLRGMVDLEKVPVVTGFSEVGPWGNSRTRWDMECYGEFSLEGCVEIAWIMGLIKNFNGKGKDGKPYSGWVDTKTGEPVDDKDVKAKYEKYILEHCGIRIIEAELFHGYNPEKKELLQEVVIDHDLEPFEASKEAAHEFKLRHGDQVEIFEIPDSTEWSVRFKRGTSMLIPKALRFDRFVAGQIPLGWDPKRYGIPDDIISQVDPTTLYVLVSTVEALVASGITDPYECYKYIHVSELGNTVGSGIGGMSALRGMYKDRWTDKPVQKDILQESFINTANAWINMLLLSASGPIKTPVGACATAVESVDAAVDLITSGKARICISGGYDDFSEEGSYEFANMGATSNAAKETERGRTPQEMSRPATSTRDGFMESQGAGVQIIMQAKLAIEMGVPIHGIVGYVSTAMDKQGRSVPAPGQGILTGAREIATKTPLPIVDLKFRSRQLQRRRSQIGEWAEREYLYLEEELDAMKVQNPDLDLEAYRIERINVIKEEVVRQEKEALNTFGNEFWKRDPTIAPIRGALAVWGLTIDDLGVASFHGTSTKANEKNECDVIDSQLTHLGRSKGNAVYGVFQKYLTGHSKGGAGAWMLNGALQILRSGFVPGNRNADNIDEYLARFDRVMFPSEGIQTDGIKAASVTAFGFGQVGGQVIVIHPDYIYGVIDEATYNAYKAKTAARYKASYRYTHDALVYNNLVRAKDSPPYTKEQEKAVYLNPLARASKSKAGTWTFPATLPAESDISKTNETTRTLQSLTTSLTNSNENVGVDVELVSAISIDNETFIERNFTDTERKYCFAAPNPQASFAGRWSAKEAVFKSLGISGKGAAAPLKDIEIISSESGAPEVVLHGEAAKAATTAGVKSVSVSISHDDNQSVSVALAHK
UniProt P19097: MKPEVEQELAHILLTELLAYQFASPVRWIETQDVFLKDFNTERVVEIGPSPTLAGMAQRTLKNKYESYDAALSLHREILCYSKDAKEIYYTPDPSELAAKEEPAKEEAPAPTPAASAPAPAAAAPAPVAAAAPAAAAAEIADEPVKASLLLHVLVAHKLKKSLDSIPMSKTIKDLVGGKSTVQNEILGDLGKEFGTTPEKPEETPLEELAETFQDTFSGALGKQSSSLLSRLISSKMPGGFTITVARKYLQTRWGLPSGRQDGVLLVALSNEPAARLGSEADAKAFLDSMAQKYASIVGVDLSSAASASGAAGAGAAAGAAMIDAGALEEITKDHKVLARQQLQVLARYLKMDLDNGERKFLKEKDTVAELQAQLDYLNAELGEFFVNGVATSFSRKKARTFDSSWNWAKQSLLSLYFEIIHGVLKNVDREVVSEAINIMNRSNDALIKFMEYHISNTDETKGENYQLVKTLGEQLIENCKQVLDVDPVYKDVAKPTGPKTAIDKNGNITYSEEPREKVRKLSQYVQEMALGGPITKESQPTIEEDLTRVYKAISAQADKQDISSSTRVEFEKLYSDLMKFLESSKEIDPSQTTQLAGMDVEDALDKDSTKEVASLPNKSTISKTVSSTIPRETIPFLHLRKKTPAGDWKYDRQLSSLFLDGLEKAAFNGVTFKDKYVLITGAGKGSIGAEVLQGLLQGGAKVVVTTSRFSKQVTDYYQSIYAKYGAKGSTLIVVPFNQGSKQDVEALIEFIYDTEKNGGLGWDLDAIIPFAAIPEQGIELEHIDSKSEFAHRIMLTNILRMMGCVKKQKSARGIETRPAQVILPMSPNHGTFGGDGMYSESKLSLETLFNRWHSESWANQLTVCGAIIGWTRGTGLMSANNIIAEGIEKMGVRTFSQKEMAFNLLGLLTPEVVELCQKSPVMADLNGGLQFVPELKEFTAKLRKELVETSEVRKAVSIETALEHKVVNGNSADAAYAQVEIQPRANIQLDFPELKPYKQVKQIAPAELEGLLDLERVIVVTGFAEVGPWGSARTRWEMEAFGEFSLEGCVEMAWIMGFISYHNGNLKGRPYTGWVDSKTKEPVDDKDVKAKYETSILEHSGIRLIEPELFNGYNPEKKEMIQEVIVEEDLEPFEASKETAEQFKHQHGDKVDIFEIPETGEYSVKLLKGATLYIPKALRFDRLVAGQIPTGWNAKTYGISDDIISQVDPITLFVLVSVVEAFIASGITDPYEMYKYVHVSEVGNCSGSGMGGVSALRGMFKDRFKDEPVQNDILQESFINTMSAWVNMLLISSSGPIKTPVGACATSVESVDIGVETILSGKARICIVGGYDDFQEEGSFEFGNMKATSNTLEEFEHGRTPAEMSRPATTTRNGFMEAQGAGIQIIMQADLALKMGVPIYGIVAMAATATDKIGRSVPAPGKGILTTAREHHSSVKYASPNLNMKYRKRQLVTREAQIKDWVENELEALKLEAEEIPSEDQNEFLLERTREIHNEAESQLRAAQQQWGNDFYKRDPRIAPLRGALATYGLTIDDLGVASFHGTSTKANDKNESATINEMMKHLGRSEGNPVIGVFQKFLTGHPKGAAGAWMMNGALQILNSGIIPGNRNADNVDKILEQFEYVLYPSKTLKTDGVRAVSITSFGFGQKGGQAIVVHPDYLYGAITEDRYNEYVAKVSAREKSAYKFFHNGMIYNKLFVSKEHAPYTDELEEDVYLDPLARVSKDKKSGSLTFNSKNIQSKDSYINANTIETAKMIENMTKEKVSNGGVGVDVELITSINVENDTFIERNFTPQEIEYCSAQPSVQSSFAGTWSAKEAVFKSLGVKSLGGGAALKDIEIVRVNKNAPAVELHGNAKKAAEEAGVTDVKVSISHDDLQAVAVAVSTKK
UniProt P07149: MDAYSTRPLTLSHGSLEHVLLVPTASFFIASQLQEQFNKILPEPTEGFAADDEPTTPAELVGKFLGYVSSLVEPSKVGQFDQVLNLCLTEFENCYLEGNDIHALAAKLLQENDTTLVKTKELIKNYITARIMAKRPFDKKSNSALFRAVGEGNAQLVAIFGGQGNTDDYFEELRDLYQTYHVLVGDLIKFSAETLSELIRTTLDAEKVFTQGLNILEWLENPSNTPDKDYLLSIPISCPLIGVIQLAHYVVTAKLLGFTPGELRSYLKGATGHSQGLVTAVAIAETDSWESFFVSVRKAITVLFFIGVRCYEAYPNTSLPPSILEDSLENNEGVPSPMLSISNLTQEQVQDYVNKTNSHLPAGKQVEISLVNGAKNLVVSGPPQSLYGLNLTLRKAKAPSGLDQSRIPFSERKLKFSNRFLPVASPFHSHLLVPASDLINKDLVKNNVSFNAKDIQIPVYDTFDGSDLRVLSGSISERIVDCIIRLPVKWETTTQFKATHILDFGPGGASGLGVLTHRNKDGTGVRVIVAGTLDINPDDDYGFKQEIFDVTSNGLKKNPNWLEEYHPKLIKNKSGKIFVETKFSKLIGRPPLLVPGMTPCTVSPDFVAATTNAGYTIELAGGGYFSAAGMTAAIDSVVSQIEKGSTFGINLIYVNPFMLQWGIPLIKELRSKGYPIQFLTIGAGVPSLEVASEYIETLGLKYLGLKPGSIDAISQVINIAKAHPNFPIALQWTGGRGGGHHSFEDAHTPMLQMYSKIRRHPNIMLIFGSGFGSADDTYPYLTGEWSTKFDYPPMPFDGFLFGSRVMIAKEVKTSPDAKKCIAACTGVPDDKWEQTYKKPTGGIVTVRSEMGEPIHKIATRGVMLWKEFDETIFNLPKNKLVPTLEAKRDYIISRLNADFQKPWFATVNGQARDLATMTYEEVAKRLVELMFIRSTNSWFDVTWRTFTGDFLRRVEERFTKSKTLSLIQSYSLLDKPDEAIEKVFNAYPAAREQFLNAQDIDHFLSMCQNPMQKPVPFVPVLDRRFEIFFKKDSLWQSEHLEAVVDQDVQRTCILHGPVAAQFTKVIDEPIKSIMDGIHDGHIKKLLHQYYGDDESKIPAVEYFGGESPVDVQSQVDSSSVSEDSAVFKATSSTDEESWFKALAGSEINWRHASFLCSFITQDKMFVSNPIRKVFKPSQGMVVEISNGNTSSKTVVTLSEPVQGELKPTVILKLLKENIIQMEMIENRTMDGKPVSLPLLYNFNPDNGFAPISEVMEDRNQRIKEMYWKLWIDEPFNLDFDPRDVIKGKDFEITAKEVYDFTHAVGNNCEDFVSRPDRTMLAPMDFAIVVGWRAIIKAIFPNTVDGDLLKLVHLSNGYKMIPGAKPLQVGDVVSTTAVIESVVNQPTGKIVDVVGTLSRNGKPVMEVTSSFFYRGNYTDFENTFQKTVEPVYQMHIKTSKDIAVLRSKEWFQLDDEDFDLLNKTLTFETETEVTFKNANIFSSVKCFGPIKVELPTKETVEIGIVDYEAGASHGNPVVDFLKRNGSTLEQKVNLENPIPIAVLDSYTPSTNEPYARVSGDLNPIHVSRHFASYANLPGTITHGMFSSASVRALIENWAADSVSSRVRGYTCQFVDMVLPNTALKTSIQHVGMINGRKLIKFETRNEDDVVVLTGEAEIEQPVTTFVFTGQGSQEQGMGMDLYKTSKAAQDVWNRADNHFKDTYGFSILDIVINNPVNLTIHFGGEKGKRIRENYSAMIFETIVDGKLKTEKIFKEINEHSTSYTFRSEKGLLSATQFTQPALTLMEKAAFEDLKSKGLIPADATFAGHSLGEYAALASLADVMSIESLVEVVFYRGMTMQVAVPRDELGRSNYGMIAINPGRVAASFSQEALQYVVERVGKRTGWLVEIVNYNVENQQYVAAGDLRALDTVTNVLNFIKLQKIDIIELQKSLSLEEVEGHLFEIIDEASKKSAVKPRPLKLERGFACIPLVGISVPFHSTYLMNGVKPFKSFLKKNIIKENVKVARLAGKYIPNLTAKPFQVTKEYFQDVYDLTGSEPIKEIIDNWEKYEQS

Key:
[1] = target: S. pombe fatty acid synthase subunit FAS2/α (S. pombe (endogenous in K972 cells)) (UniProt Q10289); assay: cryo-EM structure
[2] = target: S. cerevisiae fatty acid synthase subunit FAS2/α (S. cerevisiae (endogenous in W303 or BY4742 cells)) (UniProt P19097); assay: cryo-EM structure

Substance | binding [1] | binding [2]
S. pombe fatty acid synthase subunit FAS1/ß (from UniProt Q9UUG0 1-2073) (enzyme) | binds | 
S. cerevisiae fatty acid synthase subunit FAS1/ß (from UniProt P07149 1-2051) (enzyme) |  | binds
